The list shows a part of the results. Most values lie at the level of the controls, where differences are scatter.

Sequences of proteins named here, by UniProt entry; tags and fusion partners are left off. A change or cut given only in a name is not applied to a line headed by its entry.
UniProt Q15599: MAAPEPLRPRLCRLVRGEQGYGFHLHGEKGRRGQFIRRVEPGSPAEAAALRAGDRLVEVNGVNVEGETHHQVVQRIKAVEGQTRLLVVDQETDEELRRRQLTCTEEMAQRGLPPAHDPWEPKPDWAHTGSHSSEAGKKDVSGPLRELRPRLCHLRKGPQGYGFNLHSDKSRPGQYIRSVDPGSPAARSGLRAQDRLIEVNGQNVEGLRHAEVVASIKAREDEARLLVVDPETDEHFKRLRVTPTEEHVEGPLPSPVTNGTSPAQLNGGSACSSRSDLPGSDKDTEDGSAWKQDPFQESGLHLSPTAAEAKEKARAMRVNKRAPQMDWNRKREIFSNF
UniProt Q15834: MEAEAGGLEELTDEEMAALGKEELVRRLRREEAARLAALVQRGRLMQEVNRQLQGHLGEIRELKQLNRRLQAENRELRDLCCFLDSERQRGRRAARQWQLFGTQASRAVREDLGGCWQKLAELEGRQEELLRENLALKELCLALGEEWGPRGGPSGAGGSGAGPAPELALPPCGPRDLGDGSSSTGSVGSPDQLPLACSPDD
UniProt Q16649: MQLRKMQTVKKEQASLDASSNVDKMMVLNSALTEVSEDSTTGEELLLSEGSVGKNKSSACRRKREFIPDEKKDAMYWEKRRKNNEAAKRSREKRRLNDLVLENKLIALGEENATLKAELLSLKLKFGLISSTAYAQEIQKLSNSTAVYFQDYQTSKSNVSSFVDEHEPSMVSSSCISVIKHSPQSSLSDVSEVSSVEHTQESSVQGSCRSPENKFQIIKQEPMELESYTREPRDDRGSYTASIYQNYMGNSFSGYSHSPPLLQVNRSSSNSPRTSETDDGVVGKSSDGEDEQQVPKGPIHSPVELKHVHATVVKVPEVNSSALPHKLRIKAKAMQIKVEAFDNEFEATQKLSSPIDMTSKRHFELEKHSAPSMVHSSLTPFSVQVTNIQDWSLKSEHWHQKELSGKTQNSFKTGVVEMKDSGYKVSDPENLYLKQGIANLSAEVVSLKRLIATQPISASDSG
UniProt Q16600: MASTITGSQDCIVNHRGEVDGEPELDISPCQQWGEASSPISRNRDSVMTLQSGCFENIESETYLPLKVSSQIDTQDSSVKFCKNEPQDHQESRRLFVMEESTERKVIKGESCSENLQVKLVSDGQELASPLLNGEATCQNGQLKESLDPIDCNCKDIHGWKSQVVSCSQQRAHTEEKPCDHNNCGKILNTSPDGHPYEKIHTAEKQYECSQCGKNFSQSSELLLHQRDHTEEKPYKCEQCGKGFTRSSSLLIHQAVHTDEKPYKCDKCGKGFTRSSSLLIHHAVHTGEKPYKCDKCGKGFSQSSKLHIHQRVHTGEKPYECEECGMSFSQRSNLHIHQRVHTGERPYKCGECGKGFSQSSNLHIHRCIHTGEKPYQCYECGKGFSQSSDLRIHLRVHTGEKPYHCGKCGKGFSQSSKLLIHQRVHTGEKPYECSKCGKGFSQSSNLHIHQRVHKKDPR
UniProt Q15643: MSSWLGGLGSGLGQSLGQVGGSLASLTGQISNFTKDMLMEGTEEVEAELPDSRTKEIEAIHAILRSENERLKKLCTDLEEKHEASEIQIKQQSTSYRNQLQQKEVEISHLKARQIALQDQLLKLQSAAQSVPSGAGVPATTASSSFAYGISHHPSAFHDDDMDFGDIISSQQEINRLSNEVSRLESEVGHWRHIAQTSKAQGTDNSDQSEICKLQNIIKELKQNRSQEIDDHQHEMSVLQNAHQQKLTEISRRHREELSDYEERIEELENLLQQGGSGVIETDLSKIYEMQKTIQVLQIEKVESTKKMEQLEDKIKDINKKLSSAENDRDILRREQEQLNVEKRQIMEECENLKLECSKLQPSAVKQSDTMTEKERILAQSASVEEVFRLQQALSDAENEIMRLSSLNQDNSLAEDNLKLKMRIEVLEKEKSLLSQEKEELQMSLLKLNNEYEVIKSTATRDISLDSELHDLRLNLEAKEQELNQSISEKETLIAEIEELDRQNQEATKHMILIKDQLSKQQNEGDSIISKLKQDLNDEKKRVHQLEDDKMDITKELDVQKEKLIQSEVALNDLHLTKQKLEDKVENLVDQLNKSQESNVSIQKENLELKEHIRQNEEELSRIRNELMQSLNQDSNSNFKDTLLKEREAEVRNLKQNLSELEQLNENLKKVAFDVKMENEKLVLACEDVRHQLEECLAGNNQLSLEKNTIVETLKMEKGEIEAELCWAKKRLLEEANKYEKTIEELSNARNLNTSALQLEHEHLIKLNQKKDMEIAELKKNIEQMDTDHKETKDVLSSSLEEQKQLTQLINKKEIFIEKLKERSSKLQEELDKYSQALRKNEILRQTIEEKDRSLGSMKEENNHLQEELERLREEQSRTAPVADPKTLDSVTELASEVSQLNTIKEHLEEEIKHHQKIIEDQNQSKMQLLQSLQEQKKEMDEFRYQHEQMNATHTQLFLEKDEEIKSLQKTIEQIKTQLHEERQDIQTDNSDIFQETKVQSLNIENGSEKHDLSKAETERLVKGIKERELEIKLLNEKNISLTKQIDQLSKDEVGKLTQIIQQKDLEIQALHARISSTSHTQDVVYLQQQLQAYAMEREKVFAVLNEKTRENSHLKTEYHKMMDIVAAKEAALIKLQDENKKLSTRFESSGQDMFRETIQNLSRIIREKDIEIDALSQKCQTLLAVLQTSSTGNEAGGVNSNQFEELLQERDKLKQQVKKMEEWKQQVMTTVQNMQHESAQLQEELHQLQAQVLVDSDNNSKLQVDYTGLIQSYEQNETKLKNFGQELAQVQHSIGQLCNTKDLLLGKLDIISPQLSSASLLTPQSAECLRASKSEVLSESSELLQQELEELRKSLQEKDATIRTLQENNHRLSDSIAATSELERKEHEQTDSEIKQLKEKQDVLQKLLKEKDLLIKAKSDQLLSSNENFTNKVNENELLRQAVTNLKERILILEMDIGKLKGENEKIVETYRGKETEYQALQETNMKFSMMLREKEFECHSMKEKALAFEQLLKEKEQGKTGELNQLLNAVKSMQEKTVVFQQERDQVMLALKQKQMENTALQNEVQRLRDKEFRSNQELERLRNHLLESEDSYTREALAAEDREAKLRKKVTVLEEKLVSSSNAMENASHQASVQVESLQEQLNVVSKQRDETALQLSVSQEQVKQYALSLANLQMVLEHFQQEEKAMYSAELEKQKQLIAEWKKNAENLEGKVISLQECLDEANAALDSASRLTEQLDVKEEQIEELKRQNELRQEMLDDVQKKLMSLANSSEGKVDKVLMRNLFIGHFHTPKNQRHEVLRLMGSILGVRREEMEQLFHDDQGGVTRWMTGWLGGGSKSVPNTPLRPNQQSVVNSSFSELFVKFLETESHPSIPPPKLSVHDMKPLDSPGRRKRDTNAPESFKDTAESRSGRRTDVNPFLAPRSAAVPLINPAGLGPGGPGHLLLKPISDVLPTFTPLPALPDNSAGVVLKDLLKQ
UniProt Q15669: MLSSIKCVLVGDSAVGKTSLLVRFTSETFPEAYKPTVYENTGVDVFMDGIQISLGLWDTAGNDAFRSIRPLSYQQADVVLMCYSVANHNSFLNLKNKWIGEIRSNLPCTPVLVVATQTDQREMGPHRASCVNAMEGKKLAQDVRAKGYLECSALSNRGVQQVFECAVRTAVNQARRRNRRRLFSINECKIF
UniProt Q15102: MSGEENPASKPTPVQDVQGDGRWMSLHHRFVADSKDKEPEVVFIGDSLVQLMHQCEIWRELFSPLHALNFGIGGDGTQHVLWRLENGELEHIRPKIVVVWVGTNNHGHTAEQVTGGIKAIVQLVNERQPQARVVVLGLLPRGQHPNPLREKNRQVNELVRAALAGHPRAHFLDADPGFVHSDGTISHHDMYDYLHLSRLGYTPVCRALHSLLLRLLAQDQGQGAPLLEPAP
UniProt Q16854: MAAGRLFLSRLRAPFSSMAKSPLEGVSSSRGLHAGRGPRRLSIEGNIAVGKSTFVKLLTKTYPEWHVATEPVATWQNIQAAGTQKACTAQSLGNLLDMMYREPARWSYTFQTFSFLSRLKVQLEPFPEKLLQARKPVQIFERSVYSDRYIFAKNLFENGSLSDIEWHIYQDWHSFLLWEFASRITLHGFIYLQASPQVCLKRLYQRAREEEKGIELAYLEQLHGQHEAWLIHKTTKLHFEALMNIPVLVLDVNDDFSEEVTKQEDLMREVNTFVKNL
UniProt Q15528: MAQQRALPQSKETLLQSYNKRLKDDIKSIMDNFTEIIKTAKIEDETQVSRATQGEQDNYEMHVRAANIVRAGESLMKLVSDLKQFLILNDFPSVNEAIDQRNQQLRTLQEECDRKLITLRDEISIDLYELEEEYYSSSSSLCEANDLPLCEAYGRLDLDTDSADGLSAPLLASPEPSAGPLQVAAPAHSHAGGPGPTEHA
UniProt Q16531, whole entry: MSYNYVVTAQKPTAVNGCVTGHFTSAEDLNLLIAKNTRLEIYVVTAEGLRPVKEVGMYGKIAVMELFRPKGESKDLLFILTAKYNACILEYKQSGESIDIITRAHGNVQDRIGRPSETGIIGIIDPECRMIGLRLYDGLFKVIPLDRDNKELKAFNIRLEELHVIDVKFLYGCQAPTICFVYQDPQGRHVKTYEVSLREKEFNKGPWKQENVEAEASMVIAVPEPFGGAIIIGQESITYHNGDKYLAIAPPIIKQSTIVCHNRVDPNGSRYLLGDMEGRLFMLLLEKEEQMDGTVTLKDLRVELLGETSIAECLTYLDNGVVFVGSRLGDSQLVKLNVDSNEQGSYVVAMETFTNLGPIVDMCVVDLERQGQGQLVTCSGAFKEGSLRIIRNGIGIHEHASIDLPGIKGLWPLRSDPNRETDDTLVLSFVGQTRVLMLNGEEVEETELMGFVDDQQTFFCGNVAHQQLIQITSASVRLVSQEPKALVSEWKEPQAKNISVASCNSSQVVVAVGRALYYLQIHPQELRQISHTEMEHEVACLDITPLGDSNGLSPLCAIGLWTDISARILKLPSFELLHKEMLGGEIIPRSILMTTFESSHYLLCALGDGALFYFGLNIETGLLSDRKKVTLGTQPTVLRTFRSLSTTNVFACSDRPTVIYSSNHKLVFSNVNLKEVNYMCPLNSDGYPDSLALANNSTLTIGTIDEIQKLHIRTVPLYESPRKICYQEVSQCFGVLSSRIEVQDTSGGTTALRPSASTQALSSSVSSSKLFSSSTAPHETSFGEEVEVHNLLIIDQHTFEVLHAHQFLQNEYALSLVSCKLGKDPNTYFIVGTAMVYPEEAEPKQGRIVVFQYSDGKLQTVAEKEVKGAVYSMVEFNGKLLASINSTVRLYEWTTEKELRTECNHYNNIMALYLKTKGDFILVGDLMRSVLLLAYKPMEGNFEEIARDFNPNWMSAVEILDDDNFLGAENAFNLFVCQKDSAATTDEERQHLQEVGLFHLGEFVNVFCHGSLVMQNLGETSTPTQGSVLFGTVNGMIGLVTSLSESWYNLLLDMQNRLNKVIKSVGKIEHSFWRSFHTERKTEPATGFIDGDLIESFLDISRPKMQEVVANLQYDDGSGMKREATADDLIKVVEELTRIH
UniProt Q15072: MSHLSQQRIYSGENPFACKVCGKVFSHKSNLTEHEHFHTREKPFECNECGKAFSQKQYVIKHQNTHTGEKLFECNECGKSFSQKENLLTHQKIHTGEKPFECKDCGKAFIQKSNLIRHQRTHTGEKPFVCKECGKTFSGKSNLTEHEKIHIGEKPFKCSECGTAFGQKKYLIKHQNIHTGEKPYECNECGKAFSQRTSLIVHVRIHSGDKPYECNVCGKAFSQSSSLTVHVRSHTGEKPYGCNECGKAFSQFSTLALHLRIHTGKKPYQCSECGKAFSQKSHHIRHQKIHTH
UniProt Q15170: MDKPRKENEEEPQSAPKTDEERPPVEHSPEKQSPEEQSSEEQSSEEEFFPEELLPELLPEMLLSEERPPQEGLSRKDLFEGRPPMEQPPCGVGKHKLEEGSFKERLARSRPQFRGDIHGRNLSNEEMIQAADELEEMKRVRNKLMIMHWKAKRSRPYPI
UniProt Q2TB10: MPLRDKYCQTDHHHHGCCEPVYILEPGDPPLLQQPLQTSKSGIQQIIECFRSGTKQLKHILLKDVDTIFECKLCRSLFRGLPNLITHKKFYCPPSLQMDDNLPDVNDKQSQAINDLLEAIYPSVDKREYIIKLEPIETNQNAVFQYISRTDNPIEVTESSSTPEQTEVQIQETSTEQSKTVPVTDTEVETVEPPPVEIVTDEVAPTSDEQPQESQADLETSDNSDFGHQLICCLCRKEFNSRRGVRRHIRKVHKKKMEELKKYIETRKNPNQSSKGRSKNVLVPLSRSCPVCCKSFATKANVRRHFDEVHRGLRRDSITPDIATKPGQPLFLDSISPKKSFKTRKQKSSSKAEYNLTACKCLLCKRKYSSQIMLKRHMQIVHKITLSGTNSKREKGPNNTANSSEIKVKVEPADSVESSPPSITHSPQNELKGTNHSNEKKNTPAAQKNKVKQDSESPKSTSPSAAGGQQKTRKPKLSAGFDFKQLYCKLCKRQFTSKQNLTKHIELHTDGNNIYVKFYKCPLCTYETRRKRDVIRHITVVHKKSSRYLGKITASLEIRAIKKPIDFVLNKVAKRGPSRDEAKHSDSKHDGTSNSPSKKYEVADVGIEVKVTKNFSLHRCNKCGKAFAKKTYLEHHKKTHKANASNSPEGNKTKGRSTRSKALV

Compound in the assay: Cc1nc(Nc2ncc(C(=O)Nc3c(C)cccc3Cl)s2)cc(N2CCN(CCO)CC2)n1 [dasatinib]
Description: log2 fold change of tryptic peptide abundance, ligand vs vehicle (limited proteolysis) (log2 ratio); higher = more trypsin-susceptible (destabilized). The settings on record: ligand concentration: 5 uM; sample: K562 cleared lysate.
Consider “ACAP2 (peptide sequence: AQLQNFVKEDLRK, peptide start residue: 107) (UniProt Q15057)”, for which the log2 fold change was found to be 0.471.

For the target “UniProt Q15776 (peptide sequence: AFSQSAGLILHQR, peptide start residue: 414)”, the log2 fold change came out at 0.736.

For the target “SLC9A3R2 (peptide sequence: AAPEPLRPR, peptide start residue: 2) (UniProt Q15599)”, the log2 fold change worked out at 0.199.

With “RALBP1 (peptide sequence: QIASEKEEIER, peptide start residue: 506) (UniProt Q15311)”, the log2 fold change was -0.24.

Consider “CCDC85B (peptide sequence: DLCCFLDSER, peptide start residue: 79) (UniProt Q15834)”, for which the log2 fold change is 0.193.

As for “NFIL3 (peptide sequence: SEHWHQK, peptide start residue: 395) (UniProt Q16649)”, the log2 fold change was 0.19.

In the case of “CRY1 (peptide sequence: SSMGTGLSGGK, peptide start residue: 555) (UniProt Q16526)”, the log2 fold change is -0.2.

Take “ZNF74 (peptide sequence: NFSLGSKPR, peptide start residue: 635) (UniProt Q16587)”: the log2 fold change was -0.558.

With “UniProt Q16659 (peptide sequence: AQIALEEASQQLAGKER, peptide start residue: 503)”, the log2 fold change was -0.578.

In the case of “ZNF239 (peptide sequence: VHTGEKPYECEECGMSFSQR, peptide start residue: 312) (UniProt Q16600)”, the log2 fold change was -0.526.

Consider “TRIP11 (peptide sequence: QSDTMTEK, peptide start residue: 367) (UniProt Q15643)”, for which the log2 fold change is -0.443.

For the target “GEN1 (peptide sequence: TCNVRPPNTALDHSR, peptide start residue: 765) (UniProt Q17RS7)”, the log2 fold change came out at 0.349.

Consider “LRRFIP1 (peptide sequence: ELNELKDQIQDVEGK, peptide start residue: 138) (UniProt Q32MZ4)”, for which the log2 fold change was 0.586.

Take “UniProt Q15669 (peptide sequence: GVQQVFECAVR, peptide start residue: 158)”: the log2 fold change was -0.0717.

Turning to “TAF1A (peptide sequence: TSANISALIK, peptide start residue: 222) (UniProt Q15573)”, the log2 fold change turned out to be 0.11.

In the case of “LONRF2 (peptide sequence: CMETGTKR, peptide start residue: 568) (UniProt Q1L5Z9)”, the log2 fold change was -0.517.

“PAFAH1B3 (peptide sequence: IVVVWVGTNNHGHTAEQVTGGIK, peptide start residue: 96) (UniProt Q15102)”: the log2 fold change came to 0.124.

“DGUOK (peptide sequence: SPLEGVSSSR, peptide start residue: 21) (UniProt Q16854)”: the log2 fold change stood at 0.018.

For “MED22 (peptide sequence: ETLLQSYNKR, peptide start residue: 12) (UniProt Q15528)”, the log2 fold change is 0.259.

As for “PCK2 (peptide sequence: EGALDLSGLR, peptide start residue: 579) (UniProt Q16822)”, the log2 fold change was -0.155.

Consider “UniProt Q2VIR3 (peptide sequence: HILILQNKIDLVK, peptide start residue: 184)”, for which the log2 fold change stood at 0.758.

“DDB1 (peptide sequence: TVPLYESPRK, peptide start residue: 714) (UniProt Q16531)”: the log2 fold change turned out to be 0.231.

Regarding “ZNF146 (peptide sequence: CSECGTAFGQK, peptide start residue: 158) (UniProt Q15072)”, the log2 fold change was determined as 0.532.

Take “ADRM1 (peptide sequence: DKKDEEEDMSLD, peptide start residue: 396) (UniProt Q16186)”: the log2 fold change was 0.531.

As to “NCAPD2 (peptide sequence: QLYLNPK, peptide start residue: 699) (UniProt Q15021)”, the log2 fold change was -0.246.

In the case of “TCEAL1 (peptide sequence: KDLFEGRPPMEQPPCGVGK, peptide start residue: 76) (UniProt Q15170)”, the log2 fold change came out at 0.148.

“NFKBIB (peptide sequence: TPLGSAMLRPNPILAR, peptide start residue: 276) (UniProt Q15653)”: the log2 fold change was -0.111.

On to “ZNF800 (peptide sequence: YEVADVGIEVK, peptide start residue: 600) (UniProt Q2TB10)”, for which the log2 fold change was -0.427.

For the origin of these results see the supplement of paper PMC12819154, “High-throughput peptide-centric local stability assay extends protein–ligand identification to membrane proteins, tissues and bacteria” (Nature Structural & Molecular Biology, 2025).
